Results as given in patent US20030152512A1, “Imaging thrombus with glycoprotein llb/llla antagonists” (priority 2001, published 2003).
For some of these results: For at least one compound, name, drawing or mass did not settle the structure. Some results were stated once for a whole list of compounds, not compound by compound. Non-standard residues stand in square brackets, D forms with d. Residues, ends and D or L forms follow the SMILES beside them. *: point of attachment. NMeR = CN[C@@H](CCCNC(=N)N)C(=O)O; HYNIC = NNc1ccc(C(=O)*)cn1; 3Amb = NCc1cccc(C(=O)O)c1

What was measured:
Platelet GPIIb/IIIa = biological target: T1, Platelet GPIIb/IIIa (Canis lupus familiaris, UniProt A0A8I3N5G5+A0A8I3PMU9); test: Platelet GPIIb/IIIa binding assay (inhibition of 125I-fibrinogen binding to activated platelets); details: read-out: IC50, inhibition of the binding of I-125 fibrinogen to activated canine platelets, Tc-99 analogs of the complexes
T1 construct: from tissue
T1 sequence (A0A8I3N5G5 1-1047): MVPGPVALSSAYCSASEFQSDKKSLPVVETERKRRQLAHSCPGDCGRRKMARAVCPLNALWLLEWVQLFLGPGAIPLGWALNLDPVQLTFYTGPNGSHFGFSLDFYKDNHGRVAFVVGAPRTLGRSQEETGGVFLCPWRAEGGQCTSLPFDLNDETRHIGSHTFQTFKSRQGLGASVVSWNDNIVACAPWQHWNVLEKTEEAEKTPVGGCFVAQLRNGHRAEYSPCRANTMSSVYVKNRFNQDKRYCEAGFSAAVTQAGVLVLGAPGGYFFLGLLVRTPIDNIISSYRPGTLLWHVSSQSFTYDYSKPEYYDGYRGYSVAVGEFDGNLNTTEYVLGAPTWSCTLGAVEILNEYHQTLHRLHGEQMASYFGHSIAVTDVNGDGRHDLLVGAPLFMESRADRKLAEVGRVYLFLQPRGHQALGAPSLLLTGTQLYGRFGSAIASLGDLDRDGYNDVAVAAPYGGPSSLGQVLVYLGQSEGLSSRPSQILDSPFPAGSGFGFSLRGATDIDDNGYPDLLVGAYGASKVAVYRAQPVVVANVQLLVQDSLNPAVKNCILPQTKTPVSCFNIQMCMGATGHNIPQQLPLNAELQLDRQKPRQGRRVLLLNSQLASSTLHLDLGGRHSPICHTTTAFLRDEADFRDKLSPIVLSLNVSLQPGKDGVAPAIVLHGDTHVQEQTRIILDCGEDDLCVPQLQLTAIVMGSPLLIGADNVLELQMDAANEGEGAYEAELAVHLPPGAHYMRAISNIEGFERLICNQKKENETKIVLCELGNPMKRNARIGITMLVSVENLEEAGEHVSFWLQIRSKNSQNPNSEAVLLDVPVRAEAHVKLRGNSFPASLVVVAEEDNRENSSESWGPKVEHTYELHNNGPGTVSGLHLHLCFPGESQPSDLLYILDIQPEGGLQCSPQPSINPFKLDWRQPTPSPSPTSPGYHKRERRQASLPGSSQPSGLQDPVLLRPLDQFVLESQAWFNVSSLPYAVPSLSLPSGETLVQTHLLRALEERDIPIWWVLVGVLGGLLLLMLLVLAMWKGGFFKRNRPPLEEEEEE
T1 sequence (A0A8I3PMU9 1-919): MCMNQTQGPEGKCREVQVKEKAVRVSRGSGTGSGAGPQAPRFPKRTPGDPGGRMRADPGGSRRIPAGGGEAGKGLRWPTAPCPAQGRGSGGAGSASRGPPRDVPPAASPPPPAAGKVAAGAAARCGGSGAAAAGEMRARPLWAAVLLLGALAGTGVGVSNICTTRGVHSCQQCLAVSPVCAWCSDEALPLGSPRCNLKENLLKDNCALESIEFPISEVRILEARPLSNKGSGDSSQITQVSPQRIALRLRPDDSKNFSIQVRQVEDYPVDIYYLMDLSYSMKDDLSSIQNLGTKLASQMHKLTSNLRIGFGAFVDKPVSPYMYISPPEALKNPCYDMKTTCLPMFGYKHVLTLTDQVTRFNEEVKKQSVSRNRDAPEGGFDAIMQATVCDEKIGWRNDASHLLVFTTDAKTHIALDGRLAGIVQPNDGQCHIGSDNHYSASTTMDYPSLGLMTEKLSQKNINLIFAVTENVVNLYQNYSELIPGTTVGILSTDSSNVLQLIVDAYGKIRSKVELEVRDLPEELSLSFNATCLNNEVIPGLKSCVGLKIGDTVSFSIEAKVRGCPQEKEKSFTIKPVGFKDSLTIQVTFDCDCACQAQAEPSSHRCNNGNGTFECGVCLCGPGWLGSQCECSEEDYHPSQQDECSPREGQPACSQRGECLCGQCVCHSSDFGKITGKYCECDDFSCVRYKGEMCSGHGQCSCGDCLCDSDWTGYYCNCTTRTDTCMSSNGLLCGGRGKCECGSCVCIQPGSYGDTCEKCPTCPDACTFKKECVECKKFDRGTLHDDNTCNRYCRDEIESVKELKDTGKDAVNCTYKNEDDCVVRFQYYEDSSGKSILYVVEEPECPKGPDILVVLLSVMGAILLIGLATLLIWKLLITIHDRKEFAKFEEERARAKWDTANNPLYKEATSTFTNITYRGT
Procedure: Platelet GPIIb/IIIa Binding Assay:
During isolation, platelets were rendered quiescent by the addition of aspirin and when appropriate, primed by the addition of PGE 1. Experimentation was completed in a microtiter format with final concentrations between 1 and 2×10^7 platelets/well. Platelets were activated by the addition of CaCl2 (2 mM) and thrombin (0.2 U/mL) while non-activated platelets received buffer. Hirudin (0.5 U/mL) was added to stop the activation reaction.

venous thrombus = test: Thrombus imaging in canine deep vein thrombosis (DVT) model, gamma scintigraphy (camera ROI); format: in vivo; details: dog
Procedure: Canine Deep Vein Thrombosis Model: This model incorporates the triad of events (hypercoagulatible state, period of stasis, low shear environment) essential for the formation of a venous fibrin-rich actively growing thrombus. The procedure was as follows: Adult mongrel dogs of either sex (9-13 kg) were anesthetized with pentobarbital sodium (35 mg/kg,i.v.) and ventilated with room air via an endotracheal tube (12 strokes/min, 25 ml/kg). For arterial pressure determination, the right femoral artery was cannulated with a saline-filled polyethylene catheter (PE-240) and connected to a Statham pressure transducer (P23ID; Oxnard, Calif.). Mean arterial blood pressure was determined via damping the pulsatile pressure signal. Heart rate was monitored using a cardiotachometer (Biotach, Grass Quincy, Mass.) triggered from a lead II electrocardiogram generated by limb leads. The right femoral vein was cannulated (PE-240) for drug administration. A 5 cm segment of both jugular veins was isolated, freed from fascia and circumscribed with silk suture. A microthermister probe was placed on the vessel which serves as an indirect measure of venous flow. A balloon embolectomy catheter was utilized to induce the 15 min period of stasis during which time a hypercoagulatible state was then induced using 5 U thrombin (American Diagnosticia, Greenwich Conn.) administered into the occluded segment. Fifteen minutes later, flow was reestablished by deflating the balloon. The radiopharmaceutical was infused during the first 5 minutes of reflow and the rate of incorporation monitored using gamma scintigraphy.

Row | Compound | IC50 (Platelet GPIIb/IIIa) [nM] | Thrombus to Blood Ratio in DVT Model (Camera ROI) (venous thrombus; time 15 min) | Thrombus to Muscle Ratio in DVT Model (Camera ROI) (venous thrombus; time 15 min) | Thrombus to Blood Ratio in DVT Model (Camera ROI) (venous thrombus; time 60 min) | Thrombus to Muscle Ratio in DVT Model (Camera ROI) (venous thrombus; time 60 min)
1 | CC(C)[C@H]1NC(=O)c2cc(cc(CNC(=O)[C@H](CC(=O)O)NC(=O)c3ccc(NN)nc3)c2)CNC(=O)[C@H](CC(=O)O)NC(=O)CNC(=O)[C@H](CCCNC(=N)N)N(C)C1=O (99mTc complex, metal not drawn) [Example 4] | 3 | greater than 1.5 | greater than 1.5 | greater than 2.0 | greater than 2.0
2 | CN1C(=O)[C@@H](CCCCNC(=O)c2ccc(NN)nc2)NC(=O)c2cccc(c2)CNC(=O)[C@H](CC(=O)O)NC(=O)CNC(=O)[C@@H]1CCCNC(=N)N (99mTc complex, metal not drawn) [Example 5] (cyclo([NMeR]GD[3Amb][dK](HYNIC))) | 5 | greater than 1.5 | greater than 1.5 | greater than 2.0 | greater than 2.0
